Drawing on paper doi:10.1101/2025.08.19.671066, this text covers binding for 3 molecules.

Sequences of proteins named here, by UniProt entry; tags and fusion partners are left off.
UniProt P50536: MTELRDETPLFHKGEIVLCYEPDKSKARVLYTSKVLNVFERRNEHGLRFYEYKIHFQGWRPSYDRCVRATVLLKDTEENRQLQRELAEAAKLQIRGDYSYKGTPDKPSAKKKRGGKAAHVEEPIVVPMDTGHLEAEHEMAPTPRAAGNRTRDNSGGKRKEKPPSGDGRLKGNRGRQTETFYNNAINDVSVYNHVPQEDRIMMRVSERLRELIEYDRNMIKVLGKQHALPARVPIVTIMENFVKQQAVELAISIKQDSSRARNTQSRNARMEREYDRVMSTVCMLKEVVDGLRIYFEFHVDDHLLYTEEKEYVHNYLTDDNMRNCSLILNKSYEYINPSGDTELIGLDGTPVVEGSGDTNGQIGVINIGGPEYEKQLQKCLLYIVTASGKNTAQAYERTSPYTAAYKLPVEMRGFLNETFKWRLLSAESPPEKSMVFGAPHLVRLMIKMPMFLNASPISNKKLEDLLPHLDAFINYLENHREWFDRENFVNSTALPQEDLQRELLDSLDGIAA

These are yes or no findings as the source states them, for the method shown. Some entries that bind do so weakly or less than the wild type.

Sequences and labels used below:
T1: Mof (UniProt O02193)
T1 sequence: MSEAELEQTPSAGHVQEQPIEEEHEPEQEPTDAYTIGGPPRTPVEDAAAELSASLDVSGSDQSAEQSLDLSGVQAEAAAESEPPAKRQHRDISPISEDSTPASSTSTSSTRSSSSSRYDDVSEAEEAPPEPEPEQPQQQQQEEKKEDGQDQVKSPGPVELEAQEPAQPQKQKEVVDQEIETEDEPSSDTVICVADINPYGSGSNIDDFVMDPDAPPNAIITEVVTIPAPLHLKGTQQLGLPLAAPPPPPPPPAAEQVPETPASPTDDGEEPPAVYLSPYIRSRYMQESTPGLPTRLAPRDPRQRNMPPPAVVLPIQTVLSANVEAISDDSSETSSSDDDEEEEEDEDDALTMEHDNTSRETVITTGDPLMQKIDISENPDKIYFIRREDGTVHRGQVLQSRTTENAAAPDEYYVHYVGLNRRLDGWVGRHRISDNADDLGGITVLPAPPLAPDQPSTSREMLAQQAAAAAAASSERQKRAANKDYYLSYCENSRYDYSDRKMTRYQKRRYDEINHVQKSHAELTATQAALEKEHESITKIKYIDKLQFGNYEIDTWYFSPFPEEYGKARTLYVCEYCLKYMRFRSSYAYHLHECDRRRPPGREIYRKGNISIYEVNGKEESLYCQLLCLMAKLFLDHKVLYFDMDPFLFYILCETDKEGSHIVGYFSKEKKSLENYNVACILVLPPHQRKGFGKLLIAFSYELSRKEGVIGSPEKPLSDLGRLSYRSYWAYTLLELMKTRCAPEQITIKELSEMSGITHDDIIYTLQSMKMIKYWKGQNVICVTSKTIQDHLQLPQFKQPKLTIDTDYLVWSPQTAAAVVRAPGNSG

B1: Msl1 (protein, UniProt P50535 1-1039)
chain: MDKRFKWPPKKRANYLESPYPHIPSRGRQRNLHGHPNQTQHLHQHPGKIYERQQYGNGRGGHGGGNNNYRKLLHSLPAEHGGGAMAPPSSGGTVCAGADMVKLISENNNLRRMVMLNLNLMQEQTDSIAAKDKELDDQSAKMSVVKAQNEELKQAVAQLEAANQELCKQLRRKNQRRNDNDDDDDDPPLPPAAPQQKLIRCHAETQTVFREREQGTQTIDAQPQFANALPRGINMKESPALDHHAGAVTNQPASKRSESKGRGEFNGKKVSTFILQRMNQDFEHHIHEQTEVAEEHEMEAHKEQISQEEDQLVAEEDHLHMQEVHTEEVVGGDIFHDALESIEMEVVTEELVDMEEHGQSVDANGHIEEDDDEDDEDDENSDKDDDSEEDDYPWMHSDADVNARTEEELWQNQNYLLELDPTEEKTCAPSAHSTPNHQQKSSTQAEIRKEGNQNRITEKLLQLKPEPMVDALEAPILPKWVAFKKKDKEHESVPESPEVPKQQPHQEDAIVDHNAIKNQLEVPKPDLKPKDQPKDEQRQDGQLDVRVEPQEDVRKVQKETLKRQPEDAPKHLPKAVAPKVTKTSSRESTLPKANTADIKDAPAQKVIANHQSTKTQTDPVKTQRLQVKIRQYEMHPDMRTGSSAPSDIRKQKNVDPVSTPETKTIKSKSMLVNDKKTTSETSQSPDQEIDVETVRRKLAEHLKKELLSQSHSSQVTLKKIRERVATNLIYPPPSAPVSSTTITPAPTPSTTPTPGSTPQHAVTSSMDQEISAAKSKSKAAEQIATPLTPQSNSSVSSTTSTIRKTLNNCSPHTYSKATARSGKLQSRFRTATFPYSTRTWEDQEFHCDNEFFLEEADELLADNPSLEIPKWRDVPVPPSSDKIDTELLSDATFERRHQKYVKDEVDRKCRDARYMKEQIRLEQLRMRRNQDEVLVALDPLRASTFYPLPEDIEAIQFVNEVTVQAFGENVVNMEARDDFGVPWVDAIEAPTSIARSKALAEPVATLASKKIPTTAAEARHQENHSSYVFPKRRKRQKNR
B2: Msl2 (protein, UniProt P50534 1-773)
chain: MAQTAYLKVTRIAMRSASNLSKRRVEELNSGLGELRQLLSCVVCCQLLVDPYSPKGKRCQHNVCRLCLRGKKHLFPSCTQCEGCSDFKTYEENRMMAAQLLCYKTLCVHLLHSALFGELAGMRPQVARELVPRIKLPPKTTQEFIREGSNISDTFDIFLPQPDLPFLKDMPTSLPAETPPTSAVTTPELPYDHHLNISDIEAEAAATAEQGHFSPLPLLPTGSRMGMLSHAGQIVIATESSESGFMDQAWTDQVDLSGTVSVSKYTNSGNNFAVSYVMPTSATTKFDPQELQIGQVVQMADSTQLAVLAAVEETVETSTQLTVLSTTVEETVETSTQLEVLTSAEEPNEISDQLANLQVEESDEALVEETVEEAEGTSIPSEVVAEHMEEDQHLDVHTSQSPTQTEMEEAVEEHVATKTQLGHVQTELQDAESLQKDFEDAKAAAEEAKEKEKDLHAISAELQKEDSDEPTLKRKRTRTLKASQAAKIEPVPSEVKTKVQSGKGALRRIRGKDKEEKVKPPKPKCRCGISGSSNTLTTCRNSRCPCYKSYNSCAGCHCVCCKNPHKEDYVESDEDDDLEDFEMPKDVPEPMTQSEEPVVAEPRQEENSMAPPDSSAPISLVPLNNLQQSQHPLVLVQNEKGEYQGFNIFQGSKPLDPVTVGFTIRVQLQHTDGFGSLPQYAYIMPTIDPPNPPAPSLSPPPPPAPDREVIEPPAKKFRTSRTRRGRANFSALDTVDELVSGGSRSNSAAGDRSSATDNAHSLFEEIMSGSDDL

For the experiment, the target named is T1, Mof. Description: co-purification by affinity chromatography.
On to Msl3 (from UniProt P50536 1-512), for which the binding result is “binds”.
To B1 belongs “binds”.
To B2 belongs “binds”.
